Values from PubChem BioAssay AID1224826 (NIAID, 2016).

Screen: 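Genes that change LPS-induced Tnf promoter activity in mouse macrophages when knocked down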 (primary screen)
System: RAW264.7 G9 macrophages from mouse bearing reporters for p65 (GFP) and the Tnf promoter (mCherry)
Reagent: siRNA pool against mouse genes, 100 nM
Timing: 16 h of LPS stimulation, after 2 days of siRNA transfection
Challenge: bacterial lipopolysaccharide (Salmonella minnesota R595), 10 ng/ml
Detection: 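Imaged Tnf reporter mCherry in nuclei, minus background, normalised per plate to the median and expressed as robust z-scores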
Scale: Tnf reporter robust z-score: higher = stronger Tnf promoter reporter signal after LPS; Tnf reporter intensity: higher = stronger Tnf promoter reporter signal
Call rule: 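Called active when robust z-score is at most -1.3, matching the median of the Tlr4 knock-down control, or over 3; control wells and wells with under 50 cells never active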
Calls: active = Tnf reporter clearly lowered or raised; inactive = no clear change in Tnf reporter
The deposit covers about 17,000 reagents; this is a part drawn at random. In the full data, about 1,110 (6.6%) are marked active. 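Active means lowered or raised reporter signal; replicate intensities are raw and not normalised per plate.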 Entries without a mark were called inactive. Reagents against one gene are numbered here.

| target gene | reagent | Tnf reporter robust z-score | fewer than 50 cells in well | Tnf reporter intensity, replicate 1 | Tnf reporter intensity, replicate 2 |
| --- | --- | --- | --- | --- | --- |
| Lnpk | 1 | 0.49 | enough cells in well | 210 | 180 |
| Sprr2e | 1 | 4.19 (active) | enough cells in well | 234 | 247 |
| Or8k16 | 1 | 0.97 | enough cells in well | 253 | 197 |
| Casc3 | 1 | -0.68 | enough cells in well | 102 | 170 |
| Ackr2 | 1 | -0.93 | enough cells in well | 107 | 275 |
| 2410018L13Rik | 1 | -1.44 (active) | enough cells in well | 148 | 30.2 |
| Shcbp1 | 1 | -0.28 | enough cells in well | 87.2 | 96 |
| Jade1 | 1 | 0.98 | enough cells in well | 207 | 166 |
| Pdrg1 | 1 | – | fewer than 50 cells per well; well left out of calls | 213 | 61.3 |
| Eif2b1 | 1 | -0.11 | enough cells in well | 210 | 234 |
| Mtf1 | 1 | 1.4 | enough cells in well | 364 | 322 |
| Gng8 | 1 | 2.55 | enough cells in well | 400 | 343 |
| Miso1 | 1 | -0.68 | enough cells in well | 161 | 77.7 |
| Or6c33 | 1 | -0.33 | enough cells in well | 120 | 103 |
| Ppp1ca | 1 | 0.64 | enough cells in well | 332 | 205 |
| Gnb2 | 1 | 0.6 | enough cells in well | 312 | 186 |
| Psma5 | 1 | – | fewer than 50 cells per well; well left out of calls | 151 | 68.7 |
| 4931422A03Rik | 1 | – | fewer than 50 cells per well; well left out of calls | 137 | 29.8 |
| Trappc13 | 1 | – | fewer than 50 cells per well; well left out of calls | 192 | 77 |
| Dpep2 | 1 | -0.21 | enough cells in well | 210 | 197 |
| Gfra1 | 1 | 1 | enough cells in well | 284 | 369 |
| Trim62 | 1 | 1.12 | enough cells in well | 252 | 194 |
| Mucl1 | 1 | 2.86 | enough cells in well | 150 | 238 |
| Frs3 | 1 | 0.45 | enough cells in well | 306 | 262 |
| Cyp2b19 | 1 | 0.93 | enough cells in well | 283 | 189 |
| Fam111a | 1 | – | fewer than 50 cells per well; well left out of calls | 92 | 41.6 |
| Map2k5 | 1 | 0 | enough cells in well | 192 | 124 |
| Or6c1b | 1 | – | fewer than 50 cells per well; well left out of calls | 126 | 107 |
| Or5p51 | 1 | 0.53 | enough cells in well | 113 | 139 |
| Cnpy3 | 1 | -1.16 | enough cells in well | 122 | 54.4 |
| Braf | 1 | -0.72 | enough cells in well | 170 | 101 |
| Cacng7 | 1 | -0.14 | enough cells in well | 166 | 155 |
| Cyp2a12 | 1 | 1.39 | enough cells in well | 312 | 216 |
| Srl | 1 | -1.13 | enough cells in well | 97.7 | 131 |
| Amh | 1 | 0.86 | enough cells in well | 219 | 217 |
| Cstf2 | 1 | 0.83 | enough cells in well | 252 | 209 |
| Pde4d | 1 | 0.32 | enough cells in well | 305 | 172 |
| Pde4d | 2 | 0.24 | enough cells in well | 205 | 193 |
| Errfi1 | 1 | -1.15 | enough cells in well | 168 | 45 |
| Or8k1 | 1 | 1.27 | enough cells in well | 230 | 246 |
| Or8g19 | 1 | 0.18 | enough cells in well | 170 | 143 |
| Atn1 | 1 | -0.26 | enough cells in well | 239 | 161 |
| Map3k4 | 1 | -1.37 (active) | enough cells in well | 107 | 94.9 |
| Nxpe4 | 1 | 2.97 | enough cells in well | 227 | 322 |
| Efcab9 | 1 | 1.62 | enough cells in well | 306 | 140 |
| Pcbp4 | 1 | -0.08 | enough cells in well | 301 | 126 |
| Bambi | 1 | -2.22 (active) | enough cells in well | 45.3 | 60.2 |
| Zfp30 | 1 | -0.67 | enough cells in well | 77.4 | 118 |
| Pmel | 1 | -0.1 | enough cells in well | 226 | 245 |
| Zkscan8 | 1 | -0.77 | enough cells in well | 97.7 | 86.2 |
| Tas2r136 | 1 | 0.81 | enough cells in well | 148 | 90 |
| Smim30 | 1 | 0.17 | enough cells in well | 274 | 70.9 |
| Zdhhc5 | 1 | -0.92 | enough cells in well | 85.7 | 76 |
| Mab21l3 | 1 | -0.25 | enough cells in well | 194 | 184 |
| Itih2 | 1 | -1.11 | enough cells in well | 130 | 75.7 |
| Ptprt | 1 | -0.41 | enough cells in well | 151 | 155 |
| Tceal6 | 1 | 1.34 | enough cells in well | 318 | 129 |
| Tbc1d8b | 1 | 0.1 | enough cells in well | 192 | 189 |

Reprinted from the listing, 8 entries:
| target gene | reagent | Tnf reporter robust z-score | fewer than 50 cells in well | Tnf reporter intensity, replicate 1 | Tnf reporter intensity, replicate 2 |
| --- | --- | --- | --- | --- | --- |
| Cyp2b19 | 1 | 0.93 | enough cells in well | 283 | 189 |
| Fam111a | 1 | – | fewer than 50 cells per well; well left out of calls | 92 | 41.6 |
| Map2k5 | 1 | 0 | enough cells in well | 192 | 124 |
| Or6c1b | 1 | – | fewer than 50 cells per well; well left out of calls | 126 | 107 |
| Or5p51 | 1 | 0.53 | enough cells in well | 113 | 139 |
| Cnpy3 | 1 | -1.16 | enough cells in well | 122 | 54.4 |
| Braf | 1 | -0.72 | enough cells in well | 170 | 101 |
| Cacng7 | 1 | -0.14 | enough cells in well | 166 | 155 |
